Assay results taken from PubChem BioAssay AID1487 (National Center for Advancing Translational Sciences (NCATS), 2009).
This is one part of the list. The main result of the screen is listed elsewhere. These columns were measured beside it and carry no call. Most of these compounds were active or inconclusive in the main read-out, so they are no random draw. Potencies come from curve fits of mixed quality, noted in brackets.

Assay: qHTS Assay for Modulators of Lamin A Splicing
Conditions: HeLa LMNA splicing GFP/RFP minigene ratio, 48 h
How it was run: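 Read-out is the ratio of GFP to DsRed2 object intensity, acquired by 488 nm laser-scanning cytometry on HeLa lamin A-EGFP minigene reporter cells. Compound incubation 48 hrs at 37 °C in Opti-MEM with 2% FBS; DMSO 0.5% final.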

[1] = measured here: GFP splicing reporter channel
[2] = measured here: RFP viability control channel

SMILES	AC50 [1]	AC50 [2]
COc1cc2c3c(c1)C1(C(=O)N3C(C)(C)C=C2C)C(C#N)=C(N)Oc2cc(O)ccc21 (stereo unspecified)	4.47 µM [rising, partial curve, poor fit]	–
Cc1ccc([N+](=O)[O-])cc1-c1[nH]c(-c2ccc(O)c(O)c2)nc1-c1ccccc1	35.5 µM [rising, single point]	–
CC(=O)Nc1nc2ccccc2n1CCOc1ccccc1Cl	–	14.1 µM [rising, single point]
O=C(COc1ccccc1)Nc1nc(-c2cccs2)cs1	–	35.5 µM [rising, single point]
c1ccc(-c2noc(CSc3nnc(Cc4cccs4)n3-c3ccccc3)n2)cc1	–	35.5 µM [rising, single point]
COCCn1c(SCC(=O)NNC(=O)Cc2ccccc2)nc2ccccc2c1=O	–	4.47 µM [rising, full curve, poor fit]
CC(C)N(C(=O)CSc1nnc(NC(=O)Cc2cccs2)s1)C(C)C	2.82 µM [falling, partial curve]	–
Cc1c(NC(=O)c2c(N)sc3c2CCCC3)c(=O)n(-c2ccccc2)n1C	5.01 µM [rising, single point]	–
COc1ccc(C2CC(=O)Nc3c2c(C)nn3-c2nc(C)cc(C)n2)c(OC)c1OC (stereo unspecified)	–	0.02 µM [falling, full curve, poor fit]
CCCCc1cc2ccccc2c(OCCN(C)C)n1	–	0.0794 µM [rising, full curve, poor fit]
COc1ccccc1N1CCN(S(=O)(=O)c2ccc(Cl)s2)CC1	–	20 µM [rising, single point]
COc1ccc(OC)c(NC(=O)c2nnn(CC(=O)Nc3ccc(C(C)C)cc3)c2N)c1	35.5 µM [falling, single point]	25.1 µM [falling, partial curve]
COc1ccc(CCNC(=O)c2ccc3nc(CCc4ccccc4)oc3c2)cc1OC	2.51 µM [falling, full curve, poor fit]	2.82 µM [falling, partial curve, poor fit]
COc1ccc2[nH]c3c(=O)n(/N=C/[C@H]4C(C)C=C(C)CC4C)c(=O)[nH]c3c2c1 (stereo partly specified)	–	35.5 µM [falling, single point]
Cc1ccc(C)c(NC(=O)c2oc(=O)c3ccccc3c2-c2ccccc2)c1	–	35.5 µM [rising, single point]
Cc1nn(Cc2cccc(C(=O)NCC(C)C)c2)c(C)c1Br	–	17.8 µM [rising, single point]
CCn1cc(C(=O)N2CC=C(c3ccccc3)CC2)c(=O)c2ccc(C)nc21	35.5 µM [rising, single point]	35.5 µM [rising, single point]
CC(C)OC(=O)c1cc2ccccc2[nH]1	–	15.8 µM [rising, single point]
Fc1ccccc1N1CCN(Cc2cnc(Cl)s2)CC1	–	14.1 µM [falling, partial curve, poor fit]

An excerpt from further up:
SMILES	AC50 [1]	AC50 [2]
O=C(COc1ccccc1)Nc1nc(-c2cccs2)cs1	–	35.5 µM [rising, single point]
c1ccc(-c2noc(CSc3nnc(Cc4cccs4)n3-c3ccccc3)n2)cc1	–	35.5 µM [rising, single point]

Further records:

SMILES	AC50 [1]	AC50 [2]
O=C(NC1C=CS(=O)(=O)C1)c1ccccc1 (stereo unspecified)	–	0.178 µM [falling, full curve, poor fit]
CC(=O)Nc1ccc(S(=O)(=O)NCc2ccc(C(=O)NCCN3CCCCCC3)cc2)cc1	0.141 µM [rising, full curve, poor fit]	–
C/C(=N/O)c1ccc2c(c1)OCCOCCOc1cc(/C(C)=N/O)ccc1OCCOCCO2	–	11.2 µM [rising, partial curve, poor fit]
O=S(=O)(Cc1ccccc1)/C1=C(\N2CCOCC2)CCCCCC1	5.62 µM [rising, partial curve, poor fit]	10 µM [rising, partial curve, poor fit]
COc1ccccc1NC(=O)c1cc2cc3ccc(OC)c(Cl)c3nc2s1	–	17.8 µM [falling, single point]
CC1(OC(=O)C2CCCC2)C(=O)C=C2C=C(c3ccsc3)N(CCc3c[nH]c4ccccc34)C=C2C1=O (stereo unspecified)	0.000794 µM [rising, full curve, poor fit]	–
O=C(COC(=O)CCSc1ccccc1)NCc1ccccc1	–	17.8 µM [falling, partial curve, poor fit]
COC(=O)Nc1ccc(S(=O)(=O)N2c3ccccc3CCC2C)cc1 (stereo unspecified)	12.6 µM [rising, partial curve]	7.08 µM [rising, partial curve]
COc1ccc2cc3cc(C(=O)NCc4ccco4)oc3nc2c1	22.4 µM [rising, single point]	35.5 µM [rising, single point]
CC(C)(C)NC(=O)c1ccccc1-c1nc(-c2ccccc2Cl)no1	35.5 µM [rising, single point]	–
COc1ccc2ncc3c(-c4ccc(C)c(C)c4)nn(CC(=O)Nc4ccccc4)c3c2c1	0.1 µM [falling, full curve, poor fit]	3.55 µM [falling, partial curve]
O=S(=O)(Nc1ccc(-n2cccc2)cc1)c1ccc(Cl)cc1Cl	–	22.4 µM [rising, single point]
COc1cc(C(=O)NC(=S)NNC(=O)c2cnccn2)cc(OC)c1OC	22.4 µM [rising, single point]	35.5 µM [rising, single point]
COC(=O)c1c(NC(=O)C2COc3ccccc3O2)sc2c1CCN(C(C)=O)C2 (stereo unspecified)	–	12.6 µM [rising, partial curve]
Cc1ccc(NC(=O)CS(=O)CC(=O)N(C(C)C(=O)NC2CCCCC2)C(C)(C)C)cc1 (stereo unspecified)	–	0.00447 µM [rising, full curve, poor fit]
Cc1onc(-c2ccccc2)c1C(=O)N/N=C/c1ccc([N+](=O)[O-])s1	14.1 µM [rising, partial curve]	25.1 µM [rising, single point]
CCOP(=O)(OCC)C(NC(=O)c1cccs1)C(F)(F)F (stereo unspecified)	–	1 µM [rising, partial curve, poor fit]
COc1ccc(N2CCN(c3ccc(N4C(=O)COCC4=O)cc3[N+](=O)[O-])CC2)cc1	–	22.4 µM [rising, single point]
Cc1ccc(-n2ncc(N(C)C)c(Cl)c2=O)cc1	–	3.16 µM [rising, single point]

Filtered by structure, the entries above with a halogen
SMILES	AC50 [1]	AC50 [2]
CC(=O)Nc1nc2ccccc2n1CCOc1ccccc1Cl	–	14.1 µM [rising, single point]
COc1ccccc1N1CCN(S(=O)(=O)c2ccc(Cl)s2)CC1	–	20 µM [rising, single point]
Cc1nn(Cc2cccc(C(=O)NCC(C)C)c2)c(C)c1Br	–	17.8 µM [rising, single point]
Fc1ccccc1N1CCN(Cc2cnc(Cl)s2)CC1	–	14.1 µM [falling, partial curve, poor fit]
COc1ccccc1NC(=O)c1cc2cc3ccc(OC)c(Cl)c3nc2s1	–	17.8 µM [falling, single point]
CC(C)(C)NC(=O)c1ccccc1-c1nc(-c2ccccc2Cl)no1	35.5 µM [rising, single point]	–
O=S(=O)(Nc1ccc(-n2cccc2)cc1)c1ccc(Cl)cc1Cl	–	22.4 µM [rising, single point]
CCOP(=O)(OCC)C(NC(=O)c1cccs1)C(F)(F)F (stereo unspecified)	–	1 µM [rising, partial curve, poor fit]
Cc1ccc(-n2ncc(N(C)C)c(Cl)c2=O)cc1	–	3.16 µM [rising, single point]

More compounds follow.

SMILES	AC50 [1]	AC50 [2]
CCOC(=O)CNC(=O)c1cnn2cccnc12	0.0447 µM [rising, full curve, poor fit]	0.0398 µM [rising, partial curve]
CC(/C=N/Nc1nc2ccccc2[nH]1)=C\c1ccccc1	–	0.00501 µM [rising, full curve, poor fit]
COc1ccc(-c2nc3cnc(N4CCOCC4)nc3n(Cc3cccs3)c2=O)cc1	35.5 µM [falling, single point]	35.5 µM [falling, single point]
Cc1ccc(C(C)n2cc(C(=O)NCc3ccncc3)nn2)cc1 (stereo unspecified)	3.98 µM [rising, partial curve]	10 µM [rising, partial curve, poor fit]
COc1ccc(C(C)=O)cc1CSc1nc(NCc2ccccc2)c2ccccc2n1	20 µM [rising, single point]	–
CC(C)(C)CC(C)(C)c1ccc(OCOCCOCCO)c(Cc2cc(C(C)(C)CC(C)(C)C)cc(Cc3cc(C(C)(C)CC(C)(C)C)ccc3OCOCCOCCO)c2OCOCCOCCO)c1	0.316 µM [falling, single point]	0.251 µM [falling, full curve]
c1csc(C2=Nn3c(nnc3-c3ccncc3)SC2)c1	–	1.78 µM [falling, partial curve]
COc1cc(N=Nc2cccc(S(N)(=O)=O)c2)c2ccccc2c1N	1.12 µM [falling, full curve]	–
COc1ccc2nc(-n3c(O)c(C4=c5ccccc5=NC4=O)[nH]c3=S)sc2c1	–	14.1 µM [rising, partial curve, poor fit]
COCCN(C(=O)CNC(=O)c1cccs1)C(C(=O)NC1CCCCC1)c1ccco1 (stereo unspecified)	35.5 µM [rising, single point]	–
Cc1ccc(/C=C/C(=O)Nc2nccs2)o1	7.94 µM [rising, partial curve, poor fit]	4.47 µM [rising, partial curve, poor fit]
Cc1oc(/N=C/c2ccccc2O)c(C#N)c1C	0.178 µM [rising, partial curve, poor fit]	–
N#Cc1cc2ccccc2nc1SCC(=O)Nc1ccc(S(=O)(=O)N2CCCC2)cc1	14.1 µM [rising, single point]	15.8 µM [rising, single point]
Clc1ccc2[nH]c3c(NCCCN4CCOCC4)ncnc3c2c1	–	7.08 µM [rising, partial curve]
CC1(C)CC(N=Cc2c(O)n(Cc3ccc4c(c3)OCO4)c(=O)c3ccccc23)CC(C)(C)N1	35.5 µM [falling, single point]	–
COc1ccc(NC(=O)CSCc2cc(=O)c3cc(Cl)ccc3[nH]2)cc1	–	0.501 µM [rising, partial curve, poor fit]
Cn1c(N2CCOCC2)nc2c1c(=O)n(Cc1ccc(Cl)c(Cl)c1)c(=O)n2C	–	14.1 µM [rising, single point]
CCOc1ccccc1NC(=O)CSc1nnc(-c2ccco2)n1Cc1ccco1	15.8 µM [rising, single point]	–
